Measurements published in patent publication US20090326014A1, “Use of 5-ht7 receptor agonists for the treatment of pain” (Laboratorios Del Dr. Esteve, S.A., priority 2006, published 2009).
“Also recorded” adds a separate entry of the source. For at least one compound, name, drawing or mass did not settle the structure.

Columns and labels:
r5-HT1 non-selective = test: Radioligand binding assay, r5-HT1 non-selective; set-up: species or system rat; conditions: read-out: Affinity [ki (nM)]
r5-HT2 non-selective = test: Radioligand binding assay, r5-HT2 non-selective; set-up: species or system rat; conditions: read-out: Affinity [ki (nM)]
[1] = test system: 70 receptors, transporters or ion channels; test: Commercial screening package (MDS Pharma Services), binding profile; conditions: apart from 5-HT7, 5-HT1A and 5-HT5A
[2] = test system: capsaicin-induced mechanical allodynia; test: Capsaicin test, proallodynic protocol (4 ng capsaicin, 0.25 g von Frey filament); assay type: in vivo, mice; conditions: 0.25 g pressure
Description: Alternatively, in some experiments, only 4 ng (instead of 1 μg) of capsaicin were injected into the paw and the pressure exerted by the filament was reduced to 0.25 g (instead of 1 g). […] This approach was used to test the possibility that treatments could exert a proallodynic effect. The FIG. 1 summarizes the two different experimental approaches carried out in this study.

[3] = test system: mechanical allodynia induced by partial sciatic nerve ligation; test: Partial sciatic nerve ligation, von Frey test (mechanical allodynia); assay type: in vivo, mice; conditions: for effect on mechanical allodynia (von Frey pressure threshold), nerve-injured mice: days 11-13 post-injury
Text: Mechanical allodynia was quantified by measuring the tactile threshold for hind paw withdrawal following von Frey filament stimulation. […] The filament exerted an increasing upward pressure on the plantar surface. The pressure increased linearly with time (0.1 g/s; from 0 to 5 g in 50 s) until the mouse withdrew its paw. […] A cut-off threshold of 5 g (50 s) was imposed.
The filament of 0.4 g was first used. […] This up-down procedure was stopped four measures after the first change in animal responding and the threshold of response was calculated. Clear paw withdrawal, shaking was considered as a nociceptive-like response.

[4] = test system: mechanical allodynia in diabetic mice; test: Diabetic-like neuropathy induced by streptozotocin, manual von Frey test; assay type: in vivo
[5] = test system: carrageenan-induced mechanical allodynia; test: Carrageenan model of inflammatory pain, automatic von Frey test; assay type: in vivo, mice; conditions: 10 mg/Kg s.c., 30 minutes before test, 3 h post-carrageenan (acute inflammation)
[6] = test system: carrageenan-induced thermal hyperalgesia; test: Carrageenan model of inflammatory pain, plantar test; assay type: in vivo, mice; conditions: 10 mg/Kg s.c., single injection, 4 days post-carrageenan (chronic inflammation)
[7] = test system: formalin-induced inflammatory pain; test: Formalin model of inflammatory pain, phase II licking time; assay type: in vivo, mice; conditions: 5 mg/kg i.p.
[8] = test system: thermal hyperalgesia induced by partial sciatic nerve ligation; test: Partial sciatic nerve ligation, plantar test (thermal hyperalgesia)
[9] = test system: capsaicin-induced mechanical allodynia; test: Capsaicin test, antiallodynic protocol (1 μg capsaicin, 1 g von Frey filament); conditions: 1 g filament
[10] = test system: sciatic nerve-ligatured rats; test: Chronic constriction injury of the sciatic nerve (CCI-SN), Randall-Sellito test; conditions: s.c.; paw withdrawal and vocalization thresholds
[11] = test system: infraorbital nerve-ligatured rats; test: Chronic constriction injury of the infraorbital nerve (CCI-ION), von Frey filaments; conditions: s.c., ipsilateral vibrissal territory

For `Cc1nn(C)c(C)c1-c1cccc2c1CC[C@H](N(C)C)C2` [AS-19], the Ki (r5-HT1 non-selective) was 48.1 nM, the Ki (r5-HT2 non-selective) was > 1000 nM and the “affinity for other 5-HT receptor subtypes or other receptors, transporters or ion channels included in the screening package” value [1] was “no significant affinity”. The “effect on the proallodynic effect of SB-258719” value ([2]; SB-258719 5 mg/Kg s.c.) was “inhibited by AS-19 dose dependently”, the “effect on the proallodynic effect of SB-269970” value ([2]; SB-269970 5 mg/Kg s.c.) was “also inhibited by AS-19” and the “effect alone in non-allodynic conditions” value ([2]; s.c.) was “had no effect in non-allodynic conditions”. The “effect on mechanical allodynia (von Frey pressure threshold), nerve-injured mice” value ([3]; 0.1 and 0.3 mg/kg s.c.) was “ineffective”, the “effect on mechanical allodynia (von Frey pressure threshold), nerve-injured mice” value ([3]; 1, 5 and 10 mg/kg s.c., 30 min after treatment) was “significantly inhibited mechanical allodynia; also recorded: restored thresholds of the nociceptive withdrawal response of nerve-injured paws to baseline pre-injury values” and the “persistence of the antiallodynic effect after treatment” value ([3]; post-treatment thresholds, day 14 post-injury) was “disappeared as soon as AS-19 treatment was stopped”. The “effect on nociceptive threshold in sham-operated mice” value ([3]; 1 and 5 mg/kg s.c.) was “increased the nociceptive threshold”, the “effect on nociceptive threshold in sham-operated mice” value ([3]; s.c., over the doses tested) was “only produced minor effects” and the “effect on mechanical allodynia in diabetic mice” value ([4]; 10 mg/kg, day 30 post-streptozotocin, 30 min after treatment) was “clear antiallodynic effect”. The “effect on mechanical allodynia in diabetic mice, dose-response” value ([4]; 1, 5 and 10 mg/kg on day 22, 25 and 30 post-streptozotocin) was “dose-response effect”, the “effect on carrageenan-induced mechanical allodynia” value [5] was “significantly reduced carrageenan-induced mechanical allodynia” and the “effect on carrageenan-induced thermal hyperalgesia” value [6] was “significantly inhibited thermal hyperalgesia”. The “paw licking time in the second phase of formalin test” value [7] was “significant decrease in paw licking time”, the “effect on thermal hyperalgesia (paw withdrawal latency), nerve-injured mice” value ([8]; 0.1 mg/kg s.c.) was “did not exert analgesic (antihyperalgesic) effect” and the “effect on thermal hyperalgesia (paw withdrawal latency), nerve-injured mice” value ([8]; 1 and 10 mg/kg s.c., days 11-13 post-injury) was “increased the withdrawal latency of nerve-injured paws to levels indistinguishable from control baseline pre-injury values”. For the same compound, the “effect on thermal withdrawal latency in sham-operated mice” value ([8]; sham-operated, s.c.) was “had no effects”, the “effect on capsaicin-induced mechanical allodynia (paw withdrawal latency vs vehicle)” value ([9]; 5, 10 and 20 mg/Kg s.c.) was “Significantly increased paw withdrawal latencies” and the “effect on capsaicin-induced mechanical allodynia (paw withdrawal latency)” value ([9]; mice, s.c. 30 min before capsaicin, over the doses tested) was “dose-dependently inhibited capsaicin-induced mechanical allodynia; also recorded: restored the nociceptive response of capsaicin-sensitized mice to baseline values”. For the same compound, the “effect on mechanical nociceptive thresholds in sciatic nerve-ligatured rats” value [10] was “clear-cut antihyperalgesic effects; also recorded: long lasting antihyperalgesic effects” and the “effect on response threshold (mechanical allodynia) in infraorbital nerve-ligatured rats” value [11] was “clearly increased the threshold; also recorded: quite potent and very effective to reduce mechanical allodynia”.
